Measurements as given in patent US4288449A, “N-Arylsulfonylpyrroles, their preparation, and therapeutic agents containing these compounds” (BASF Aktiengesellschaft, priority 1978, dated 1981).

How the values were obtained:
in vivo = details: mouse, po
Procedure: To determine the acute toxicity, the substances are administered orally to groups of 10 female mice of the NMRI strain, weighing from 20 to 23 g. The mean lethal dose (LD 50) is determined after a period of observation of 72 hours.

[1] = Diuretic action after oral administration (excretion of electrolyte and of water); assay type: in vivo, dog (male beagles); details: dog
Procedure: The diuretic action was determined on male beagles weighing from 10 to 15 kg.
The animals are kept without food for 18 hours before starting the experiment. 2 hours before administration of the test substance, they are given 20 ml/kg of water orally. The test substances are administered orally as a tragacanth suspension. Thereafter, 4 ml/kg of water are administered 6 times at intervals of 1 hour.
Urine samples are taken by catheterization at intervals of 2 hours, over a period of 6 hours. […]

## NS(=O)(=O)c1cc(C(=O)O)c(NCc2ccco2)cc1Cl [Furosemid, 4-chloro-N-(2-furylmethyl)-5-sulfamylanthranilic acid, reference compound]
In vivo
  LD50 at 72 h: 2000 mg/kg
  selectivity ratio: 2000
[1]; 2 hours, dose mg/kg: 9 0.464, 15 0.215, 114 0.1, 116 0.1, 120 0.215, Furosemid 1.0, control 66
  Excretion of electrolyte: Na^+: 1,370 μval/kg
[1]; 2 hours, doses as E1, control 9,3
  Excretion of water: H2 O: 25 mL/kg
[1]; 2 hours, doses as E1, control 67
  Excretion of electrolyte: K^+: 449 μval/kg
[1]; 2 hours, doses as E1, control 81
  Excretion of electrolyte: Cl^-: 1,720 μval/kg
[1]; 6 hours, dose mg/kg: 9 0.464, 15 0.215, 114 0.1, 116 0.1, 120 0.215, Furosemid 1.0, control 212
  Excretion of electrolyte: Na^+: 1,530 μval/kg
[1]; 6 hours, doses as E6, control 27
  Excretion of water: H2 O: 39 mL/kg
[1]; 6 hours, doses as E6, control 184
  Excretion of electrolyte: K^+: 620 μval/kg
[1]; 6 hours, doses as E6, control 238
  Excretion of electrolyte: Cl^-: 1,890 μval/kg
[1]; in words
  Na^+ excretion between the 2nd and 6th hours after administration: no longer rises significantly
